PubChem BioAssay AID1159578 | Peter MacCallum Cancer Centre – 2015
The deposit covers about 18,000 reagents; this is a part drawn at random. Over the whole deposit, about 1,030 (5.7%) were called active. 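Inactive calls also include pools with fewer than 3300 nuclei, whose migration was not assessed.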 Raw values are not corrected between plates. Entries without a mark were called inactive. Not all columns of the deposit are shown. Reagent sequences are not shown.

- Assay: 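Knock-downs that alter how fast lymphatic endothelial cells migrate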 (primary screen)
- System: human lymphatic endothelial cells
- Knock-down reagent: siRNA pool against human genes, 40 nM
- Time to read-out: 48 h after transfection
- Measurement: 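High-content imaging of dye-stained cells in a scratch assay measures filled wound area and nuclei per well; duplicate means given as ratio to mock and robust z-score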
- Reading the numbers: migration robust z-score: higher = faster migration into the scratch; nuclei per well: higher = more cells in the well
- Active means: 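Pools averaging fewer than 3300 nuclei are never called; remaining pools count as changed when migration robust z lies outside -2 to 2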
- Calls: active = migration changed; inactive = no migration change, or too few cells

Depletion of NVL gave: migration robust z-score 0.37; nuclei per well, duplicate mean 4753.
Knock-down of ENO2 gave: migration robust z-score 0.88; nuclei per well, duplicate mean 6166.
For B3GNT7, the values are migration robust z-score -0.06; nuclei per well, duplicate mean 4984.
After knock-down of FOLH1 the results were migration robust z-score 0.36; nuclei per well, duplicate mean 5036.
After knock-down of MLEC, the record shows migration robust z-score 0.22; nuclei per well, duplicate mean 6626.
GOLGA3 scored migration robust z-score 0.13; nuclei per well, duplicate mean 5659.
Knock-down of SLC16A9 gave: migration robust z-score 2.82 (active); nuclei per well, duplicate mean 7654.
Against DUSP21, the values are migration robust z-score 0.94; nuclei per well, duplicate mean 6253.
After knock-down of CLEC4A, the record shows migration robust z-score 0.25; nuclei per well, duplicate mean 5610.
SLC4A2 scored migration robust z-score -0.86; nuclei per well, duplicate mean 3518.
For PGPEP1, the values are migration robust z-score 0.62; nuclei per well, duplicate mean 4991.
Depletion of DEFA1 resulted in: migration robust z-score -0.63; nuclei per well, duplicate mean 5112.
